Each structure is given as a SMILES string. The list is a part of this screen's results and no random one: it is rich in T/C values a quarter to a half above the control, in often repeated tests (any T/C) and in doses without a T/C. Further doses and runs are listed elsewhere. T/C gives the treated animals as a percentage of the vehicle group. Some entries give survivors of the animals treated and no T/C: the source files T/C as zero there, which appears to mark a toxic dose or a test without result, not a measured value. Some survivor counts are full or nearly so, which does not show that the dose was tolerated: the source hardly ever lists a survival T/C far under the control, and the zero likely stands for such cases as well. Counts of survivors are from the toxicity check (mostly the fifth day) where no day follows; animals may have died later. Schedules are NCI's codes, taken here to give the interval after Q, in days (D) or hours (H), and the number of doses after X. Some doses were run more than once; their values stand side by side, smallest first. Some molecules as drawn cover several salts, stereoisomers or complexes of the source; a dose is that of the sample tested. Where survival is the endpoint, this PubChem deposit counts one and a half times the control or more as active, and values a quarter to a half above the control carry no call in these data; other NCI protocols may use other cut-offs. Some schedule codes hold Z or #, which are not explained here. Some T/C values carry the count of animals alive at the toxicity check (mostly the fifth day); where none is given, no animal had died by that day.

The subject of this assay is L1210 leukemia ip in BDF1 mice, survival T/C. As to the kind of experiment: NCI In Vivo Anticancer Drug Screen. Data for tumor model L1210 Leukemia (intraperitoneal) in B6D2F1 (BDF1) mice. The conditions noted are these: T/C endpoint: mean survival time, higher T/C = longer survival.
The mark [1] stands for this setting: dose: 200.0 mg/kg/injection, schedule: Q01DX001 (ip), vehicle: saline.
[2] abbreviates: dose: 200.0 mg/kg/injection, schedule: Q04DX003 (ip), vehicle: saline with Tween-80.
Where [3] appears, read: dose: 400.0 mg/kg/injection, schedule: Q04DX003 (ip), vehicle: saline with Tween-80.
[4] abbreviates: dose: 150.0 mg/kg/injection, schedule: Q01DX001 (ip), vehicle: saline.
The mark [5] stands for this setting: dose: 300.0 mg/kg/injection, schedule: Q01DX001 (ip), vehicle: saline.
The mark [6] stands for this setting: dose: 400.0 mg/kg/injection, schedule: Q01DX001 (ip), vehicle: saline.
Setting [7] is: dose: 400.0 mg/kg/injection, schedule: Q04DX002 (ip), vehicle: Klucel (hydroxypropylcellulose) (HPC).
Setting [8] is: dose: 200.0 mg/kg/injection, schedule: Q01DX009 (ip), vehicle: saline with Tween-80.
[9] abbreviates: dose: 400.0 mg/kg/injection, schedule: Q04DX002 (ip), vehicle: saline with Tween-80.
The mark [10] stands for this setting: dose: 400.0 mg/kg/injection, schedule: Q01DX009 (ip), vehicle: Klucel (hydroxypropylcellulose) (HPC).
Setting [11] is: dose: 400.0 mg/kg/injection, schedule: Q01DX009 (ip), vehicle: saline.
Where [12] appears, read: dose: 100.0 mg/kg/injection, schedule: Q01DX001 (ip), vehicle: carboxymethylcellulose (CMC).
[13] abbreviates: dose: 200.0 mg/kg/injection, schedule: Q01DX001 (ip), vehicle: carboxymethylcellulose (CMC).

`COc1ccc(CNc2ccccc2C(=O)O)cc1OC`: the survivor count under setting [1] is recorded as 4 of 4.
As for `O=C(O)/C=C/C(=O)Nc1cccc2c1C(=O)c1ccccc1-2`, the survivor count by setting is: under setting [2], 6 of 6; under setting [3], 0 of 6.
For `NP(=S)(Oc1ccc(Cl)cc1)Oc1ccc(Cl)cc1`, the survivor count by setting is: (dose: 50.0 mg/kg/injection, schedule: Q04DX002 (ip), vehicle: gum acacia) 0 of 3; (dose: 100.0 mg/kg/injection, schedule: Q04DX002 (ip), vehicle: gum acacia) 0 of 3; (dose: 200.0 mg/kg/injection, schedule: Q04DX002 (ip), vehicle: gum acacia) 0 of 3; (dose: 400.0 mg/kg/injection, schedule: Q04DX002 (ip), vehicle: gum acacia) 0 of 3.
`CCCCCCCCCCCCCCCCSC(=N)N`: where the note is “dose: 400.0 mg/kg/injection, schedule: Q04DX003 (ip), vehicle: carboxymethylcellulose (CMC)”, the survivor count was 0 of 6.
For `C[N+](C)(Cc1ccccc1)Cc1ccccc1`, the survivor count by setting is: (dose: 50.0 mg/kg/injection, schedule: Q01DX001 (ip), vehicle: saline) 1 of 4; (dose: 100.0 mg/kg/injection, schedule: Q01DX001 (ip), vehicle: saline) 0 of 4; under setting [4], 1 of 6; under setting [1], 0 of 4; under setting [5], 1 of 6; under setting [6], 0 of 4.
For the compound `CCCOC(=O)NNC(=O)OCCC`, the survivor count reads like this: (dose: 150.0 mg/kg/injection, schedule: Q01DX009 (ip), vehicle: Klucel (hydroxypropylcellulose) (HPC)) 6 of 6; (dose: 300.0 mg/kg/injection, schedule: Q01DX009 (ip), vehicle: Klucel (hydroxypropylcellulose) (HPC)) 0 of 6.
For `CC1=NC(C)CNC(C)(C)CC(C)=NC(C)CNC(C)(C)C1` (configuration not stated), the survivor count (dose: 100.0 mg/kg/injection, schedule: Q04DX002 (ip), vehicle: Klucel (hydroxypropylcellulose) (HPC)) is listed as 0 of 3; the survivor count (dose: 200.0 mg/kg/injection, schedule: Q04DX002 (ip), vehicle: Klucel (hydroxypropylcellulose) (HPC)) was 0 of 3; the survivor count under setting [7] is recorded as 0 of 3.
For the compound `O=C=Nc1cccc2c(N=C=O)cccc12`, the survivor count is 3 of 3 (dose: 50.0 mg/kg/injection, schedule: Q01DX009 (ip), vehicle: saline with Tween-80) and 3 of 3 under setting [8].
As for `Nc1c(F)c(F)c(N)c(F)c1F`, the survivor count (dose: 200.0 mg/kg/injection, schedule: Q01DX001 (ip), vehicle: acetone) is recorded as 4 of 6.
Consider `C1=Nc2ccccc2/C1=C/c1cccc2ccccc12`, for which, under setting [9], the survivor count is on record as 3 of 3.
Consider `NNC(=O)c1ccccc1`, for which the survivor count runs as follows: (dose: 100.0 mg/kg/injection, schedule: Q04DX003 (ip), vehicle: saline with Tween-80) 6 of 6; under setting [1], 0 of 4; under setting [2], 0 of 6; under setting [6], 0 of 4.
With `CCCNC(=O)Oc1c(C)cccc1C`, the survivor count (dose: 200.0 mg/kg/injection, schedule: Q01DX009 (ip), vehicle: carboxymethylcellulose (CMC)) is 0 of 3; the survivor count under setting [7] was 1 of 3; the survivor count (dose: 400.0 mg/kg/injection, schedule: Q04DX002 (ip), vehicle: carboxymethylcellulose (CMC)) was 2 of 3 and 4 of 6.
With `CC(=O)NC(C)Cc1ccc2c(c1)OCO2` (configuration not stated), the survivor count under setting [10] is 0 of 6.
Consider `CCCCC(CCCC)c1ccccn1`, for which the survivor count runs as follows: (dose: 100.0 mg/kg/injection, schedule: Q01DX009 (ip), vehicle: saline with Tween-80) 3 of 6; under setting [8], 3 of 6; (dose: 400.0 mg/kg/injection, schedule: Q01DX009 (ip), vehicle: saline with Tween-80) 0 of 6.
Turning to `COc1ccc(NC(=O)OC/C=C/c2ccccc2)c(OC)c1`, the survivor count under setting [10] is 6 of 6.
Turning to `CC(=O)SCC(CSC(C)=O)c1nncc2ccccc12`, the survivor count was 0 of 6 under setting [1] and 0 of 6 under setting [6].
With `O=C(O)COc1ccc(F)cc1Cl`, the survivor count (dose: 50.0 mg/kg/injection, schedule: Q01DX009 (ip), vehicle: Klucel (hydroxypropylcellulose) (HPC)) was 0 of 6.
`NC(=O)N1C(=O)C2C3C=CC(O3)C2C1=O` (configuration not stated): the survivor count under setting [11] is 6 of 6.
Consider `Nc1nc(N)nc(N)n1` (tested in a mixture with another compound), for which the survivor count under setting [3] is 2 of 3.
For `CC(C)COC(=O)C1(N)CCCC1`, where the note is “dose: 30.0 mg/kg/injection, schedule: Q01DX009 (ip), vehicle: saline”, the survivor count is given as 0 of 6. For the same compound, the T/C was 125 % of control [5 of 6 alive] (dose: 66.0 mg/kg/injection, schedule: Q01DX Z (ip), vehicle: saline); 135 % of control (dose: 100.0 mg/kg/injection, schedule: Q01DX009 (ip), vehicle: saline); 129 and 136 % of control (dose: 100.0 mg/kg/injection, schedule: Q01DX Z (ip), vehicle: saline); 131 % of control (dose: 150.0 mg/kg/injection, schedule: Q01DX009 (ip), vehicle: saline).
Regarding `CSc1ccc(-c2nc3ncnc(N)c3[nH]2)cc1`, the survivor count (dose: 100.0 mg/kg/injection, schedule: Q01DX001 (ip), vehicle: gum acacia) is reported as 6 of 6.
In the case of `[Cu+2].[O-]c1ccc(Br)c2cccnc12.[O-]c1ccc(Br)c2cccnc12`, the survivor count runs as follows: under setting [12], 0 of 4; under setting [13], 0 of 4.
On to `S=c1nc[nH]c2c1N=CNN2`, for which the survivor count is, setting by setting: (dose: 50.0 mg/kg/injection, schedule: Q01DX001 (ip), vehicle: carboxymethylcellulose (CMC)) 0 of 4; (dose: 80.0 mg/kg/injection, schedule: Q01DX001 (ip), vehicle: carboxymethylcellulose (CMC)) 0 of 6; under setting [12], 0 of 4; under setting [13], 0 of 4; (dose: 400.0 mg/kg/injection, schedule: Q01DX001 (ip), vehicle: carboxymethylcellulose (CMC)) 0 of 6.
Take `Cc1ccc(N)c(Br)c1`: the survivor count under setting [8] is 2 of 6.
Take `CN(C)N=Nc1ccc(CCC(=O)NN)cc1`: the T/C (dose: 45.0 mg/kg/injection, schedule: Q01DX Z (ip), vehicle: saline) is 132 % of control.
Regarding `CCOP(=O)(SCC)N(CC)CC` (configuration not stated), the survivor count (dose: 75.0 mg/kg/injection, schedule: Q01DX001 (ip), vehicle: saline) is 2 of 6; the survivor count under setting [4] is 0 of 6; the survivor count under setting [5] is recorded as 0 of 6.
For `COc1cc2c(cc1OC)C1CC(=O)C(CC(C)C)CN1CC2` (configuration not stated), the survivor count reads like this: (dose: 200.0 mg/kg/injection, schedule: Q01DX009 (ip), vehicle: Klucel (hydroxypropylcellulose) (HPC)) 4 of 6; under setting [10], 2 of 6.
With `Cc1ccc(NSC(Cl)(Cl)Cl)cc1`, the survivor count under setting [9] is on record as 0 of 3.
Consider `C1OC1C[N+]12CN3CN(CN(C3)C1)C2` (configuration not stated), for which the survivor count under setting [11] is listed as 0 of 3.
`NC(N)=Nc1ccc(OC(=O)c2ccc(N=C(N)N)cc2)cc1`: the survivor count (dose: 100.0 mg/kg/injection, schedule: Q01DX009 (ip), vehicle: water) is reported as 3 of 6; the survivor count (dose: 200.0 mg/kg/injection, schedule: Q01DX009 (ip), vehicle: water) is given as 0 of 6; the survivor count (dose: 400.0 mg/kg/injection, schedule: Q01DX009 (ip), vehicle: water) is 0 of 6.
Regarding `[Ni+2].[O-]c1ccc(Cl)cc1C=NCc1ccccn1.[O-]c1ccc(Cl)cc1C=NCc1ccccn1`, the survivor count under setting [3] is 6 of 6.
Take `COc1cccc(CC(N)=O)c1OC`: the survivor count under setting [11] was 6 of 6.

(Values after PubChem BioAssay AID248 (DTP/NCI, 2004).)
